Binding data for 1 molecule are collected here from patent publication EP4714978A1 (Neukio Biotherapeutics (Shangai ) Co., Ltd., dated 2026).

For this test, the target named is T1, human DLL3 protein (human, UniProt Q9NYJ7 27-492, limits assumed).
T1 construct: Soluble human DLL3 protein used in BLI; also called Delta-like protein 3
T1 sequence (looked up): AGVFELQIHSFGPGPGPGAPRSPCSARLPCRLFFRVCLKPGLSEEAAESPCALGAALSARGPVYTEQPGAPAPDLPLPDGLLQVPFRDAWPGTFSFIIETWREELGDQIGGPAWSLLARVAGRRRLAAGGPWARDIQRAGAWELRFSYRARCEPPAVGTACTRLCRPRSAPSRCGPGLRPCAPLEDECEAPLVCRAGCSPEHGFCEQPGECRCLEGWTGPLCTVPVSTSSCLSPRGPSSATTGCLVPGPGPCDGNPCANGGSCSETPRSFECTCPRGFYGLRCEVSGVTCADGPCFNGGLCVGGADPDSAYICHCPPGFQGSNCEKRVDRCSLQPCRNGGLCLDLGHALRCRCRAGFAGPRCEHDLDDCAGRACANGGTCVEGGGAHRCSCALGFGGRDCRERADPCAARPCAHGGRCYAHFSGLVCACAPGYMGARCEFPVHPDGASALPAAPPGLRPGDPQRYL
Put plainly: BLI, comparison with AMG757 told in the discussion. On the technique in general: Biolayer interferometry detects binding as a change in optical thickness at a sensor tip.

Results are given in words; binding and its absence hold for the method and conditions named. Some entries that bind do so weakly or less than the wild type. Where a sequence is shown, tags or fusion partners need not be part of it.

B1: Ab.76 scFv-human IgG Fc (Fc fusion)
chain: EIVMTQSPATLSVSPGERATLSCRASQSVSSNLAWYRQKPGQAPRLFIYGAYTRATDIPARFSGSGSGTEFTLTISSLQSEDFAVYYCQQYNNWPFTFGPGTKVDIKGGGGSGGGGSGGGGSEVQMVESGGVLVQPGMSLRLSCAASGFTFDDYAMHWVRQPPGKGLEWVSVISWNSGSIGYADSVKGRFTISRDNAKNSLYLQMNSLRAEDTAFYYCAKDLEGGVMDFDYWGQGTLVTVSS
notes: not shown: human IgG Fc
With B1, the binding entry is on record as “binds”.
